Our source for the step yield values is patent US5098996A (The United States of America as represented by the …, priority 1988, dated 1992).

This data set can be described thus: peptide synthesis. The conditions noted are these: late stage modification step; run 1.

Take HPhePheGlyLeuMetNH2 [5n]: the step yield turned out to be 60%.

HPhePheGlyLeuMetNH2 [4n] yielded a step yield of 79%.
